From article PMC10076531
These are yes or no findings as the source states them, for the method shown. Some results given as binding are weak or reduced against the parent protein; the word gives no strength. For part of these data: Sequences can lack the tags named with a protein.

The chains behind the UniProt entries cited, without tags or fusion partners. Residues count along the entry.
UniProt Q8IZN3, residues 2-488: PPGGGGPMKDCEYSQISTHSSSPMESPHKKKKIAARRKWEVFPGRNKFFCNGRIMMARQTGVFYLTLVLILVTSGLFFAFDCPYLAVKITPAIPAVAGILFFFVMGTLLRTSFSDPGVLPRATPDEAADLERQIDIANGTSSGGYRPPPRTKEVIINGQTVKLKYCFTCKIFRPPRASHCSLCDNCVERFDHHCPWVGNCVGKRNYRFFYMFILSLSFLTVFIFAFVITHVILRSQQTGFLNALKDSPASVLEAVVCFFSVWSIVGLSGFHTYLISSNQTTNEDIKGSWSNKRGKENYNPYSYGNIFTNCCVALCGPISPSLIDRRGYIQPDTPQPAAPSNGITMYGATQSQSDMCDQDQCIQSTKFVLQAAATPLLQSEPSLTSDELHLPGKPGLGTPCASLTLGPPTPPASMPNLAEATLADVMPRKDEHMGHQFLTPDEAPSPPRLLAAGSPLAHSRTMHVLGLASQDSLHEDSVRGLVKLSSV
UniProt Q9Y397, residues 2-364: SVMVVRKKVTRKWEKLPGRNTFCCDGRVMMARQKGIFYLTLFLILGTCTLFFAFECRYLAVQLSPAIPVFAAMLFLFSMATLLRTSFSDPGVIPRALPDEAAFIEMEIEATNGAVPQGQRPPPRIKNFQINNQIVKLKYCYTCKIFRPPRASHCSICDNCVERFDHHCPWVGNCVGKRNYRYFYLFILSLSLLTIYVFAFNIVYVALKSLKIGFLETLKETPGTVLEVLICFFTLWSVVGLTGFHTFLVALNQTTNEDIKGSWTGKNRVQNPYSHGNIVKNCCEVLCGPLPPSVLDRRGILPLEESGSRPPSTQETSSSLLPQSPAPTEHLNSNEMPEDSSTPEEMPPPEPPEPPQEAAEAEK
UniProt Q7Z5G4, residues 2-137: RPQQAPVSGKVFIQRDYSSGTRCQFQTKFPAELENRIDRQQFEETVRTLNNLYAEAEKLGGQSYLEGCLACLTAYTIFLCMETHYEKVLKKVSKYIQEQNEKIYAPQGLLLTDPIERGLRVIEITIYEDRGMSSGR

Columns and labels:
Assay in all cases: SEC; the two strep-tagged proteins co-expressed in Sf9 cells, solubilised in 1% DDM, purified on StrepTactin resin, then Superdex 200 in 150 mM NaCl, 20 mM HEPES pH 7.4, 0.5 mM TCEP, 15% glycerol, 0.5 mM DDM; fractions on SDS-PAGE with Coomassie; both purified
[1] = target: DHHC14 with an N-terminal strep-tag (human) (UniProt Q8IZN3)
[2] = target: Palmitoyltransferase ZDHHC9 (DHHC9) with a C-terminal strep-tag (human) (UniProt Q9Y397)
[3] = target: T1, DHHC18 with an N-terminal strep-tag (human) (UniProt Q9NUE0)
T1 sequence: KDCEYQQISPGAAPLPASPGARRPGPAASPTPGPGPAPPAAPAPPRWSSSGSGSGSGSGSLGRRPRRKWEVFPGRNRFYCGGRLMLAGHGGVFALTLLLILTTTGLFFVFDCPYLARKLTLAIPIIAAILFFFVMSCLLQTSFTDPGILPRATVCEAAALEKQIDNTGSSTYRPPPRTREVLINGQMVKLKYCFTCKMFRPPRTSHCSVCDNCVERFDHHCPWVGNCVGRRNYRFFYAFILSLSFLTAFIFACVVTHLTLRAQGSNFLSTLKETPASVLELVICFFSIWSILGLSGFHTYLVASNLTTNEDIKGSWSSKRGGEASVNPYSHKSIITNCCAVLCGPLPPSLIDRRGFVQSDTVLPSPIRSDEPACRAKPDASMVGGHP

Measured: binding

GCP16 (GOLGA7) with a C-terminal strep-tag (from UniProt Q7Z5G4 2-137)
binds: all assays above
